This assay has as its system CD2F1 mice, L1210 leukemia ip, survival T/C. In words: NCI In Vivo Anticancer Drug Screen. Data for tumor model L1210 Leukemia (intraperitoneal) in CD2F1 (CDF1) mice. Particulars: higher T/C = longer survival. The procedure, abridged:
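Read-out first: treated-group measurement over vehicle-control measurement, expressed as a ratio. Animals bore a transplanted tumor line and were dosed with compound or vehicle.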

Where [1] appears, read: T/C endpoint: mean survival time, dose: 400.0 mg/kg/injection, schedule: Q01DX001 (ip), vehicle: saline with Tween-80.
[2] abbreviates: T/C endpoint: mean survival time, dose: 200.0 mg/kg/injection, schedule: Q04DX003 (ip), vehicle: saline.
The mark [3] stands for this setting: T/C endpoint: mean survival time, dose: 400.0 mg/kg/injection, schedule: Q04DX003 (ip), vehicle: saline.

The list does not hold the whole screen: it gathers tests that were run many times, whatever their T/C, doses with no T/C, and many T/C values between a quarter and a half above the control. Further doses and runs are listed elsewhere. T/C gives the treated animals as a percentage of the vehicle group. Some entries give survivors of the animals treated and no T/C: the source files T/C as zero there, which appears to mark a toxic dose or a test without result, not a measured value. Some survivor counts are full or nearly so, which does not show that the dose was tolerated: survival well below the control is almost never listed, so the zero probably covers shortened survival too. Survivors were counted at the toxicity check, usually on the fifth day, unless a day is given; later deaths do not show. Schedule codes are those of the source, taken here to give the interval after Q, in days (D) or hours (H), and the number of doses after X. Some schedule codes hold Z or #, which are not explained here. Some doses were run more than once; the results are listed from low to high. Where survival is the endpoint, this PubChem deposit counts one and a half times the control or more as active, and values a quarter to a half above the control carry no call in these data; other NCI protocols may use other cut-offs. Some T/C values carry the count of animals alive at the toxicity check (mostly the fifth day); where none is given, no animal had died by that day.

Regarding `Nc1ccn([C@@H]2C=C(CO)[C@@H](O)[C@H]2O)c(=O)n1`, the T/C is 126 % of control (T/C endpoint: median survival time, dose: 0.25 mg/kg/injection, schedule: Q01DX009 (ip), vehicle: saline); 149 % of control [5 of 6 alive] (T/C endpoint: median survival time, dose: 0.5 mg/kg/injection, schedule: Q01DX009 (ip), vehicle: saline); 224, 276, 301 % of control (T/C endpoint: median survival time, dose: 1.0 mg/kg/injection, schedule: Q01DX009 (ip), vehicle: saline, evaluated on day 30); 312 % of control (T/C endpoint: median survival time, dose: 1.0 mg/kg/injection, schedule: Q01DX009 (ip), vehicle: saline, evaluated on day 45); 216 % of control (T/C endpoint: median survival time, dose: 1.0 mg/kg/injection, schedule: Q01DX009 (ip), vehicle: saline, evaluated on day 60); 149 % of control (T/C endpoint: median survival time, dose: 1.0 mg/kg/injection, schedule: Q01DX009 (oral), vehicle: saline). Further, the T/C was 126 % of control (T/C endpoint: median survival time, dose: 1.0 mg/kg/injection, schedule: Q04DX003 (ip), vehicle: saline); 240 and 269 % of control (T/C endpoint: median survival time, dose: 1.5 mg/kg/injection, schedule: Q01DX009 (ip), vehicle: saline, evaluated on day 30); 253 % of control (T/C endpoint: median survival time, dose: 1.5 mg/kg/injection, schedule: Q01DX009 (ip), vehicle: saline, evaluated on day 45); 271 % of control (T/C endpoint: median survival time, dose: 1.5 mg/kg/injection, schedule: Q01DX009 (ip), vehicle: saline, evaluated on day 60); 146 % of control (T/C endpoint: median survival time, dose: 2.0 mg/kg/injection, schedule: Q01DX009 (ip), vehicle: saline); 137 % of control (T/C endpoint: median survival time, dose: 2.25 mg/kg/injection, schedule: Q01DX009 (ip), vehicle: saline). Besides, the T/C (T/C endpoint: median survival time, dose: 16.0 mg/kg/injection, schedule: Q04DX003 (ip), vehicle: saline) was 146 % of control; the T/C (T/C endpoint: median survival time, dose: 125.0 micrograms/kg/injection, schedule: Q03HX024 (ip), vehicle: saline) is 138 % of control; the T/C (T/C endpoint: median survival time, dose: 1000.0 micrograms/kg/injection, schedule: Q03HX024 (ip), vehicle: saline) was 142 % of control.

In the case of `CSc1ncc(N=C=O)c(=O)[nH]1`, the survivor count under setting [1] is on record as 0 of 6.

On to `CCN(CC)CC(C)(C)CO`, for which, where the note is “T/C endpoint: mean survival time, dose: 400.0 mg/kg/injection, schedule: Q04DX003 (ip), vehicle: saline with Tween-80”, the survivor count is 0 of 6.

For the compound `C=CC1CC[N-]CC1.C=CC1CC[N-]CC1.C=CC1CC[N-]CC1.[Cl][Cr]([Cl])[Cl]`, the survivor count is given as 0 of 6 under setting [2] and 0 of 6 under setting [3].

On to `CS(=O)(=O)CS(=O)(=O)OCCF`, for which the survivor count (T/C endpoint: median survival time, dose: 50.0 mg/kg/injection, schedule: Q01DX009 (ip), vehicle: saline) is 0 of 6 and 5 of 6.

With `CCc1ccc(O)cc1O`, the survivor count is given as 2 of 6 under setting [2] and 0 of 6 under setting [3].

For the compound `[C-]#[O+].[C-]#[O+].[C-]#[O+].[C-]#[O+].[CH3][Sn]([CH3])[CH3].[Co]`, the survivor count by setting is: (T/C endpoint: mean survival time, dose: 0.19 mg/kg/injection, schedule: Q01DX009 (ip), vehicle: saline) 1 of 3; (T/C endpoint: mean survival time, dose: 0.39 mg/kg/injection, schedule: Q01DX009 (ip), vehicle: saline) 0 of 3; (T/C endpoint: mean survival time, dose: 1.56 mg/kg/injection, schedule: Q01DX009 (ip), vehicle: saline) 0 of 3; (T/C endpoint: mean survival time, dose: 6.25 mg/kg/injection, schedule: Q01DX009 (ip), vehicle: saline) 0 of 3; (T/C endpoint: mean survival time, dose: 12.5 mg/kg/injection, schedule: Q01DX009 (ip), vehicle: saline) 0 of 3; (T/C endpoint: mean survival time, dose: 25.0 mg/kg/injection, schedule: Q01DX009 (ip), vehicle: saline) 0 of 3.

`Cc1ccc(S(=O)(=O)NCl)cc1`: for the setting “T/C endpoint: mean survival time, dose: 100.0 mg/kg/injection, schedule: Q01DX009 (ip), vehicle: saline”, the survivor count is listed as 0 of 6.

For the compound `NC(=O)c1cn(C2OC(CO)C(O)C2O)c2nc(N)nc(N)c2c1=O` (configuration not stated), the T/C reads like this: (T/C endpoint: mean survival time, dose: 200.0 mg/kg/injection, schedule: Q01DX005 (ip), vehicle: water) 131 % of control; (T/C endpoint: median survival time, dose: 400.0 mg/kg/injection, schedule: Q01DX005 (ip), vehicle: saline with Tween-80) 127 % of control [5 of 6 alive].

For the compound `N#CCCN(N=O)C(=O)Nc1ccccc1`, the T/C is, setting by setting: (T/C endpoint: mean survival time, dose: 25.0 mg/kg/injection, schedule: Q01DX Z (ip), vehicle: carboxymethylcellulose (CMC)) 125 % of control; (T/C endpoint: mean survival time, dose: 50.0 mg/kg/injection, schedule: Q01DX Z (ip), vehicle: carboxymethylcellulose (CMC)) 143 % of control. For the same compound, the survivor count (T/C endpoint: mean survival time, dose: 150.0 mg/kg/injection, schedule: Q01DX Z (ip), vehicle: carboxymethylcellulose (CMC)) is listed as 0 of 6.

As for `Cc1nc(N)nc(N)c1-c1ccc(Cl)c(Cl)c1`, the T/C (T/C endpoint: mean survival time, dose: 2.0 mg/kg/injection, schedule: Q01DX009 (sc), vehicle: other) is 128 % of control; the T/C (T/C endpoint: mean survival time, dose: 3.0 mg/kg/injection, schedule: Q01DX009 (sc), vehicle: other) was 135 % of control; the T/C (T/C endpoint: mean survival time, dose: 4.0 mg/kg/injection, schedule: Q01DX009 (ip), vehicle: saline with Tween-80) is 139 % of control; the T/C (T/C endpoint: mean survival time, dose: 8.0 mg/kg/injection, schedule: Q01DX009 (ip), vehicle: Klucel (hydroxypropylcellulose) (HPC)) was 125 % of control [5 of 6 alive]; the T/C (T/C endpoint: mean survival time, dose: 8.0 mg/kg/injection, schedule: Q01DX009 (ip), vehicle: saline with Tween-80) was 146 % of control; the T/C (T/C endpoint: mean survival time, dose: 33.0 mg/kg/injection, schedule: Q04DX003 (ip), vehicle: saline) is 137 % of control. Moreover, the T/C reads like this: (T/C endpoint: mean survival time, dose: 50.0 mg/kg/injection, schedule: Q04DX003 (ip), vehicle: saline) 127 % of control; (T/C endpoint: median survival time, dose: 2.5 mg/kg/injection, schedule: Q01DX009 (ip), vehicle: saline) 132 % of control. Besides, the survivor count is, setting by setting: (T/C endpoint: mean survival time, dose: 10.0 mg/kg/injection, schedule: Q02DX005 (ip), vehicle: saline) 2 of 6; (T/C endpoint: mean survival time, dose: 16.0 mg/kg/injection, schedule: Q01DX009 (ip), vehicle: saline with Tween-80) 6 of 6; (T/C endpoint: mean survival time, dose: 20.0 mg/kg/injection, schedule: Q02DX005 (ip), vehicle: saline) 0 of 6.

For `CC(=O)[O-].c1cc[c]([Sb+]([c]2ccccc2)([c]2ccccc2)[c]2ccccc2)cc1`, the survivor count is 0 of 6 (T/C endpoint: mean survival time, dose: 75.0 mg/kg/injection, schedule: Q01DX001 (ip), vehicle: saline); 0 of 6 (T/C endpoint: mean survival time, dose: 150.0 mg/kg/injection, schedule: Q01DX001 (ip), vehicle: saline); 0 of 6 (T/C endpoint: mean survival time, dose: 300.0 mg/kg/injection, schedule: Q01DX001 (ip), vehicle: saline).

Regarding `Nc1ncnc2c1ncn2CCCl`, the survivor count (T/C endpoint: mean survival time, dose: 100.0 mg/kg/injection, schedule: Q01DX009 (ip), vehicle: saline with Tween-80) is listed as 2 of 6.

For the compound `CCN(Cc1cnc2nc(N)nc(N)c2n1)c1ccc(C(=O)NC(CCC(=O)O)C(=O)O)cc1` (configuration not stated), under “T/C endpoint: mean survival time, dose: 1.25 mg/kg/injection, schedule: Q01DX009 (ip), vehicle: sodium bicarbonate”, the T/C is 141 % of control. In addition, the survivor count (T/C endpoint: mean survival time, dose: 25.0 mg/kg/injection, schedule: Q01DX009 (ip), vehicle: sodium bicarbonate) was 6 of 6.

In the case of `O=C(O)CC(=O)CC(=O)O.[NH-]C1CCCCC1[NH-].[Pt+2]`, the T/C reads like this: (T/C endpoint: median survival time, dose: 25.0 mg/kg/injection, schedule: Q04DX003 (ip), vehicle: saline) 128 % of control; (T/C endpoint: median survival time, dose: 50.0 mg/kg/injection, schedule: Q04DX003 (ip), vehicle: saline) 128 and 141 % of control. The survivor count (T/C endpoint: median survival time, dose: 200.0 mg/kg/injection, schedule: Q04DX003 (ip), vehicle: saline) is recorded as 3 of 6.

On to `CCc1ccc2ccccc2c1N`, for which the survivor count is, setting by setting: (T/C endpoint: mean survival time, dose: 100.0 mg/kg/injection, schedule: Q01DX001 (ip), vehicle: saline with Tween-80) 3 of 6; under setting [1], 2 of 6.

Consider `CCCCOC(=O)CCC(NC(=O)c1ccc(N(C)Cc2cnc3nc(N)nc(N)c3n2)cc1)C(=O)OCCCC` (configuration not stated), for which the T/C was 125 and 126 % of control (T/C endpoint: mean survival time, dose: 0.38 mg/kg/injection, schedule: Q01DX009 (ip), vehicle: distilled water + Tween-80); 125 % of control (T/C endpoint: mean survival time, dose: 0.75 mg/kg/injection, schedule: Q01DX009 (ip), vehicle: distilled water + Tween-80); 132 % of control (T/C endpoint: mean survival time, dose: 1.5 mg/kg/injection, schedule: Q01DX009 (ip), vehicle: distilled water + Tween-80). Also, the survivor count is reported as 6 of 6 (T/C endpoint: mean survival time, dose: 3.0 mg/kg/injection, schedule: Q01DX009 (ip), vehicle: distilled water + Tween-80); 6 of 6 (T/C endpoint: mean survival time, dose: 6.0 mg/kg/injection, schedule: Q01DX009 (ip), vehicle: distilled water + Tween-80); 5 of 6 (T/C endpoint: mean survival time, dose: 12.0 mg/kg/injection, schedule: Q01DX009 (ip), vehicle: distilled water + Tween-80).
